Sequences of proteins named here, by UniProt entry; tags and fusion partners are left off. A change or cut given only in a name is not applied to a line headed by its entry.
UniProt P18054: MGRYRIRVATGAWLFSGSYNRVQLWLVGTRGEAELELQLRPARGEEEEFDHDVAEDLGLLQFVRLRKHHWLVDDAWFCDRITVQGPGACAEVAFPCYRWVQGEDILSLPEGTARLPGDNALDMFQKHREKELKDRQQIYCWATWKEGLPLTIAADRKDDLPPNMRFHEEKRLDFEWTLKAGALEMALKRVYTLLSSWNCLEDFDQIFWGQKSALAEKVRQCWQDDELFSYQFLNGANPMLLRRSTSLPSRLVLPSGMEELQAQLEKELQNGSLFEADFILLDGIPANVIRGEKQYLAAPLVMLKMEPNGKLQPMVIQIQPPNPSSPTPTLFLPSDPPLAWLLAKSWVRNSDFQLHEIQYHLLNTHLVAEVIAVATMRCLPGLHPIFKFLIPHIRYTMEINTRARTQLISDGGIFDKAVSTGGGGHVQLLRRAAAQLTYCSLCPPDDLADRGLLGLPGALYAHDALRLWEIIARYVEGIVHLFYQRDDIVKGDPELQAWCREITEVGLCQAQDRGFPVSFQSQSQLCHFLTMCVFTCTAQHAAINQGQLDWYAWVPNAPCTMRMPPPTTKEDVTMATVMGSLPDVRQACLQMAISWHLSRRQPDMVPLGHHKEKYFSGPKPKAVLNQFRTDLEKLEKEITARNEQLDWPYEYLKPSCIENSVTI

“And” between values parts separate entries of the source, which are not always exact repeats. Equal entries are not always repeated. About 6,100 (1.1%) of roughly 580,000 compounds were called active. This list was built around the results that the source calls inconclusive (neither active nor inactive); the mix of calls is not that of the screen. Calls come from the whole dose curve; as a rule, active = well fitted inhibition curve with a large enough effect; inconclusive = small, poorly fitted or top-dose-only effect, or another doubt; inactive = no such curve, though single readings can be large or run the other way. A potency beside an inconclusive call is a rough fit, not a confirmed value.
What follows are compounds tested against Polyunsaturated fatty acid lipoxygenase ALOX12 (Homo sapiens) (UniProt P18054) (assay: Primary qHTS assay for inhibitors of human arachidonate 12S-lipoxygenase (ALOX12): Round 2). Settings: purified 12hLO, xylenol orange hydroperoxide absorbance; activity change, negative = inhibition: at 108 µM (top of the series) unless noted.
In short: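 Hydroperoxide product was detected by ferrous iron/xylenol orange as the 573 to 405 nm absorbance ratio. Arachidonic acid at 40 uM (final) was turned over for 30 min at room temperature by 150 nM human 12hLO, pH 7.0 Hepes buffer, after 15 min compound preincubation.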
`O=C(Nc1nnc(SCC(=O)N2CCCCC2)s1)C1CCCCC1` was tested, and the Potency was inconclusive: 31.6 µM [inhibitor, partial curve, poor fit].
In the case of `O=C(CSc1nc2ccccc2[nH]1)NC(=O)NCc1ccco1`, the Potency was inconclusive: 3.98 µM [inhibitor, full curve, poor fit].
In the case of `COc1ccc(C(=O)OCc2nc(N)c3ccccc3n2)c(O)c1`, the “activity change, negative = inhibition” value was inactive: 11.6%.
`CCC(Sc1ccc2nnc(-c3ccc(OC)c(OC)c3)n2n1)C(=O)O` (configuration not stated) was tested, and the Potency was inconclusive: 31.6 µM [inhibitor, full curve, poor fit].
In the case of `Cc1ccn2cc(-c3ccc(O)c(O)c3)nc2c1`, the Potency was inconclusive: 4.47 µM [inhibitor, full curve, poor fit].
`O=C(CCc1cc2n(n1)CCCNC2)Nc1ccccc1CCc1ccccn1` was tested, and the Potency was inconclusive: 8.91 µM [inhibitor, partial curve, poor fit].
With `Cc1ccc2c(c1)c1c3n2CCN(C=O)C3CCC1` (configuration not stated) the Potency was inconclusive: 28.2 µM [inhibitor, single point].
For `Clc1cccc(CSc2cccc3cccnc23)c1`, the Potency was inconclusive: 2.24 µM [inhibitor, full curve, poor fit].
For `CC1CCCN(C(=O)C2CCN(Cc3ccc4c(c3)OCO4)CC2)C1` (configuration not stated), the Potency was inconclusive: 2.82 µM [inhibitor, partial curve, poor fit].
With `C[C@@H]1ON(C)[C@H]2C[C@H]3c4cc(N5CCOCC5)ccc4CCN3C(=O)[C@@H]12` the Potency was inconclusive: 17.8 µM [inhibitor, full curve, poor fit].
With `NC(=S)Nc1cccc2ncccc12` the Potency was inconclusive: 8.91 µM [inhibitor, full curve, poor fit].
With `COc1cc(NC(=O)c2cc([N+](=O)[O-])ccc2NC(=O)CNC2CCCCC2)cc(OC)c1` the “activity change, negative = inhibition” value was inactive: -1.59%.
For `CCCCn1c(=O)[nH]c(=O)c2c1nc(CSc1nnnn1-c1ccc(C)cc1)n2CC`, the Potency was inconclusive: 11.2 µM [inhibitor, full curve, poor fit].
In the case of `O=C1/C(=C\c2ccccn2)SC(=S)N1c1ccc(S(=O)(=O)Nc2nccs2)cc1`, the “activity change, negative = inhibition” value was inactive: 145%.
With `COC(=O)c1nn(-c2ccc(OC)cc2)c(=O)c2c(N)sc(C)c12` the Potency was inconclusive: 44.7 µM [inhibitor, partial curve, poor fit].
`Cc1ccccc1N=C(NOCc1ccc(Cl)cc1Cl)c1nonc1N` was tested, and the Potency was inconclusive: 50.1 µM [inhibitor, partial curve, poor fit].
In the case of `O=C(O)COc1ccccc1C1Nc2ccccc2-c2nnc(SCc3ccc(Cl)cc3)nc2O1` (configuration not stated), the Potency was inconclusive: 22.4 µM [inhibitor, partial curve, poor fit].
`Cc1ccc2nsnc2c1NC(=O)c1ccc([N+](=O)[O-])cc1` was tested, and the “activity change, negative = inhibition” value was inactive: -2.93%.
`O=c1cc(-c2cccc3c2Sc2ccccc2S3)oc(N2CCOCC2)c1` was tested, and the Potency was inconclusive: 54.4 µM [inhibitor, single point].
In the case of `Cc1ccc(C)c(N2CCN(C(=O)C3CCC(CNS(=O)(=O)c4ccc(Br)s4)CC3)CC2)c1` (configuration not stated), the Potency was inconclusive: 50.1 µM [inhibitor, partial curve, poor fit].
In the case of `Cc1cc(C(=O)COC(=O)Cc2ccc(Cl)cc2)c(C)n1C`, the Potency was inconclusive: 39.8 µM [inhibitor, partial curve].
With `Cc1sc(N)nc1-c1ccc(NC(=O)C(C)C)cc1` the Potency was inconclusive: 39.8 µM [inhibitor, partial curve].
`CCOC(=O)CC(=O)Nc1nnc(C(C)C)s1` was tested, and the “activity change, negative = inhibition” value was inactive: -22.7%.
`O=C(Cn1nnc(-c2ccccc2)n1)Nc1ccc2c(c1)OCO2` was tested, and the “activity change, negative = inhibition” value was inactive: 69.4%.
For `O=C(NNS(=O)(=O)c1cc(Cl)cc(Cl)c1)c1sccc1-n1cccc1`, the Potency was inconclusive: 3.55 µM [inhibitor, full curve, poor fit].
With `O=C(C[C@@H]1CCNC[C@@H]1Cc1cc(CN2CCOCC2)on1)NCCN1CCOCC1` the Potency was inconclusive: 14.1 µM [inhibitor, full curve, poor fit].
With `Cc1c(Cl)cccc1NCC(=O)N1CCNC1=O` the Potency was inconclusive: 79.4 µM [inhibitor, partial curve, poor fit].
With `NC1(C(=O)N2CCCC(CCc3cccc(C(F)(F)F)c3)C2)CC1` (configuration not stated) the Potency was inconclusive: 7.94 µM [inhibitor, full curve, poor fit].
For `Cc1nn(-c2ccccc2)c(Oc2ccc(F)cc2F)c1CCC(=O)N1CCSCC1`, the “activity change, negative = inhibition” value was inactive: 2.32%.
With `Cc1ccc(Nc2nc(-c3ccc(C)cc3C)cs2)cc1` the Potency was active: 6.31 µM.
With `O=C(C1CCN(S(=O)(=O)c2ccc(Cl)cc2)CC1)N1CCCC1c1ccccc1` (configuration not stated) the Potency was inconclusive: 8.91 µM [inhibitor, full curve, poor fit].
For `Cc1ccc(CN2CCc3nn(Cc4ccccc4)c(=O)n3CC2)nc1`, the “activity change, negative = inhibition” value was inactive: 41.6%.
With `COC(=O)[C@H]1CC(=O)N[C@@H]1c1ccc(OC(C)C)c(OC)c1` the “activity change, negative = inhibition” value was inactive: 16.6%.
With `Cc1ccccc1OCCn1c(S(=O)(=O)O)nc2c(N)ncnc21` the Potency was inconclusive: 31.6 µM [inhibitor, partial curve, poor fit].
`CNc1ccccc1C(C)(C)c1cc(-c2cccc([N+](=O)[O-])c2)no1` was tested, and the Potency was inconclusive: 31.6 µM [inhibitor, partial curve, poor fit].
In the case of `C=CCN(CC(=O)NC(N)=O)Cc1ccc(OC)cc1`, the “activity change, negative = inhibition” value was inactive: -1.16%.
`CCC(Sc1ncnc2sc3c(c12)CCCC3)C(=O)OCC(C)C` (configuration not stated) was tested, and the “activity change, negative = inhibition” value was inactive: -11.3%.
In the case of `COc1ccc(CCn2c(=S)[nH]c3cc(C(=O)N4CCOCC4)ccc3c2=O)cc1OC`, the Potency was inconclusive: 39.8 µM [inhibitor, partial curve, poor fit].
In the case of `CCOc1ccccc1C(=O)Nc1cc(-c2nc3cccnc3s2)ccc1C`, the “activity change, negative = inhibition” value was inactive: -4.53%.
In the case of `COc1cccc2cc(-c3csc(Nc4cccc(C(F)(F)F)c4)n3)c(=O)oc12`, the “activity change, negative = inhibition” value was inactive: -16.1%.
In the case of `Nc1ccc(C(=O)Nc2ccc3c(O)cc(S(=O)(=O)O)cc3c2)cc1`, the Potency was inconclusive: 89.1 µM [inhibitor, partial curve, poor fit].
With `Oc1cccc(Nc2cc(-c3ccccc3)ncn2)c1` the Potency was inconclusive: 89.1 µM [inhibitor, partial curve, poor fit].
For `Cc1ccsc1/C=N/n1c(-c2cc(-c3ccccc3)n[nH]2)n[nH]c1=S`, the Potency was inconclusive: 89.1 µM [inhibitor, partial curve, poor fit].
In the case of `Cc1[nH]c2ccccc2c1C(=O)C(=O)Nc1ccc(Oc2ccccc2)cc1`, the Potency was inconclusive: 100 µM [inhibitor, single point].
In the case of `Cc1cnc(NC(=O)[C@@H](NC(=O)c2ccccc2F)C(C)C)s1`, the “activity change, negative = inhibition” value was inactive: -8.27%.
For `NC(=S)N/N=C1\CCOc2ccc(F)cc21`, the Potency was inconclusive: 35.5 µM [inhibitor, partial curve, poor fit].
In the case of `CC(=O)NC1=NC(=O)/C(=C/c2cn(C(C)=O)nc2-c2ccccc2)S1`, the “activity change, negative = inhibition” value was inactive: -28.2%.
In the case of `CCCCn1c(N)c(N(CC)C(=O)C2Cc3ccccc3C(=O)O2)c(=O)[nH]c1=O` (configuration not stated), the Potency was inconclusive: 35.5 µM [inhibitor, partial curve].
`NS(=O)(=O)c1ccc(CCNc2nc3c(-c4cccc(F)c4)nnn3c3ccccc23)cc1` was tested, and the “activity change, negative = inhibition” value was inactive: -21.6%.
`O=C(CSc1nnc(-c2ccc(S(=O)(=O)N3CCCCCC3)cc2)o1)c1ccc(Cl)cc1` was tested, and the “activity change, negative = inhibition” value was inactive: 4.07%.
`Cc1ccc2oc(=O)n(Cc3ccc(OC(C)C)cc3)c2c1` was tested, and the Potency was inconclusive: 31.6 µM [inhibitor, single point].
`CCOC(=O)c1ccccc1NC(=O)c1nn(-c2ccc(C)cc2)c(=O)n(C)c1=O` was tested, and the Potency was inconclusive: 6.31 µM [inhibitor, full curve, poor fit].
In the case of `S=C(N/N=C/C1CC=CCC1)NC1CCCCC1` (configuration not stated), the Potency was inconclusive: 44.7 µM [inhibitor, partial curve, poor fit].
For `O=C(c1cccc(C(F)(F)F)c1)N1CCCC1c1ccco1` (configuration not stated), the “activity change, negative = inhibition” value was inactive: -40.2%.
In the case of `CCOCCCNC(=O)Cn1cc2c(n1)-c1c(oc(C(=O)N3CCCC3)c1C)CC2`, the Potency was inconclusive: 4.47 µM [inhibitor, full curve, poor fit] and inconclusive: 50.1 µM [inhibitor, partial curve, poor fit].
In the case of `CCc1noc(C)c1C(=O)OCC(=O)NCc1ccc(Cl)cc1`, the activity change, negative = inhibition was inconclusive: -39.8% [inhibitor].
In the case of `Cc1ccsc1/C=N/N(Cc1ccccc1)c1ccccc1`, the “activity change, negative = inhibition” value was inactive: -10.4%.
`Cc1sc(NC(=O)c2sc3nc4c(C)cccc4cc3c2N)c(C#N)c1C` was tested, and the Potency was inconclusive: 44.7 µM [inhibitor, partial curve, poor fit].
`CC1(C)CC(=O)C2=C(C1)c1c(ccc3ccccc13)NC2c1cc([N+](=O)[O-])cc([N+](=O)[O-])c1O` (configuration not stated) was tested, and the Potency was active: 39.8 µM.
With `Cc1nnnn1-c1ccc(NS(=O)(=O)NCc2ccccc2)cc1` the Potency was inconclusive: 22.4 µM [inhibitor, single point].
`Clc1ccc2nc(CN3CCCCCC3)cn2c1` was tested, and the Potency was inconclusive: 44.7 µM [inhibitor, partial curve, poor fit].
In the case of `Cc1cccc(OCCOCCn2c(-c3ccc(Cl)cc3)nc3ccccc3c2=O)c1C`, the activity change, negative = inhibition was inconclusive: -32% [inhibitor].
For `COC(=O)Cn1ccc2cc(S(=O)(=O)N3CCCCC3)ccc21`, the Potency was “inactive”.
`O=C(NCCN1CCN(S(=O)(=O)c2ccc3ccccc3c2)CC1)C(=O)Nc1ccc(F)cc1` was tested, and the “activity change, negative = inhibition” value was inactive: 2.65%.
In the case of `Cc1c(CC(=O)Nc2ccc(C(C)C)cc2)c(=O)oc2cc(O)ccc12`, the Potency was inconclusive: 89.1 µM [inhibitor, partial curve, poor fit].
For `Cc1cc(C)c(S(=O)(=O)N2CCC(N3CCN(Cc4ccc(F)cc4)C(=O)C3=O)CC2)c(C)c1`, the activity change, negative = inhibition was inconclusive: -32.5% [inhibitor].

Source: PubChem BioAssay AID1671190 (National Center for Advancing Translational Sciences (NCATS), 2021)
% is set by controls: 0 for no effect and ±100 for the full control effect; potency is the fitted concentration of half-maximal effect.
